Results taken from article PMC5606850, “Acidic C-terminal domains autoregulate the RNA chaperone Hfq” (eLife, 2017).
No constants are given. Whether binding was seen depends on the method and setting.

Biological target: T1, CTDpos-FITC (CTD peptide containing the mutated C-terminal tip RSNKTN) (E. coli)
T1 sequence (peptide, FITC-Ahx on the N-terminus; C-terminal COOH): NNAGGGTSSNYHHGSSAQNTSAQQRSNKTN
Assay: fluorescence polarisation; 45 nM FITC-labelled peptide titrated with Hfq65 or variant (0–100 µM Hfq monomer), 50 mM Tris·HCl pH 7.5 (low salt), 30 °C, duplicate, single-site isotherm; Kd in Hfq monomer; both purified

E. coli Hfq65 (Hfq core; truncated variant lacking the CTD) (from UniProt P0A6X3 1-65) (domain or fragment)
binding: no binding (tested: 0–100 µM Hfq monomer)
